Values quoted from earlier work, collected in patent US12534530B2, “Combination of a PD-1 antagonist and a VEGFR inhibitor for treating cancer” (PFIZER INC., priority 2014, dated 2026).

Experiments:
[1] = tested on: vascular endothelial growth factor (VEGF) receptors 1, 2 and 3; conditions: qualitative statement
[2] = tested on: endothelial cell; conditions: Hu-Lowe et al. 2008; Solowiej et al. 2009

CNC(=O)c1ccccc1Sc1ccc2c(/C=C/c3ccccn3)n[nH]c2c1 [Axitinib, N-methyl-2-[3-((E)-2-pyridin-2-yl-vinyl)-1H-indazol-6-ylsulfanyl]-benzamide]
inhibitor of VEGF receptors 1, 2 and 3 [1]: potent and selective inhibitor | inhibition of VEGF-mediated endothelial cell proliferation and survival [2]: potently inhibit
